Test results: patent US20190257817A1, “METHODS AND SYSTEMS FOR SCREENING CANDIDATE COMPOUNDS FOR THEIR POTENTIAL TO CAUSE SYSTEMIC OR HEPATIC TOXICITY” (Qualyst Transporter Solutions, LLC, priority 2016, published 2019)
For some of these results: For at least one compound, name, drawing or mass did not settle the structure. Some of these results come from one statement about several compounds together.

Key:
NTCP = biological target: T1, NTCP (Homo sapiens, UniProt Q14973); experiment: In vitro assays of NTCP inhibition
T1 sequence (Q14973 1-349): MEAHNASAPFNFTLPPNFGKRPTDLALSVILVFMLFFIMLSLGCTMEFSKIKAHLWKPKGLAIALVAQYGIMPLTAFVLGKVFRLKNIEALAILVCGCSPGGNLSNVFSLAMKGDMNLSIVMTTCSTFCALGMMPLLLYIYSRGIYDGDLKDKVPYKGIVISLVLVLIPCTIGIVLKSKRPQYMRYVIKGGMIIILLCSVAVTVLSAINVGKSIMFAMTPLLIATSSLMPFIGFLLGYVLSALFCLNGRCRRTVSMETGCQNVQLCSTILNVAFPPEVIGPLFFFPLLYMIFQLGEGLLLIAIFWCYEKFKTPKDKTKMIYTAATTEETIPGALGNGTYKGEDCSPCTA

[1] = LiverTox Database, despite extensive use; cited from earlier work
SCHH = experiment: Biliary clearance and biliary excretion of d8-TCA in SCHH; assay type: cell-based, human

COC(c1ccccc1)(c1ccccc1)[C@H](Oc1nc(C)cc(C)n1)C(=O)O [Ambrisentan]
NTCP effect (NTCP): no NTCP/BSEP effect

CCc1ccc(CCOc2ccc(CC3SC(=O)NC3=O)cc2)nc1 (stereo not shown) [pioglitazone]
liver injury cases reported [1]: < 12 cases

CN(CCOc1ccc(CC2SC(=O)NC2=O)cc1)c1ccccn1 (stereo not shown) [rosiglitazone]
liver injury cases reported [1]: < 12 cases

Cc1c(C)c2c(c(C)c1O)CCC(C)(COc1ccc(CC3SC(=O)NC3=O)cc1)O2 (stereo not shown) [troglitazone]
biliary clearance of d8-TCA (SCHH): markedly reduced in a dose-dependent manner
